Measurements reported in PubChem BioAssay AID652243 (Drosophila RNAi Screening Center, 2013)

Screen: 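Fly genes required for human androgen receptor driven transcription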 (primary screen)
Cells: Drosophila S2R+ cells
Reagents: long dsRNA against Drosophila genes
Duration: 72 h (48 h, then 24 h hormone)
Conditions: synthetic androgen R1881 at 10 nM for 24 h
Measured: 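Per-well raw luminescence of the androgen-driven firefly reporter and of the Renilla control, two replicates each, without normalisation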
Reading the numbers: firefly reporter light: higher = more light from androgen-responsive reporter; Renilla control light: higher = more constitutive control signal (cell number, transfection)
Hit rule: 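Hit when the log firefly-to-Renilla ratio dropped or increased by a fixed fold versus the mean of GFP or LacZ controls across duplicate plates; lowering cut given as 1.5 and as 3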
Meaning of the calls: active = hit: reporter lowered or raised; inactive = no hit
The screen tested about 24,000 reagents; shown is a random part of those with a known target gene and a result. Of all reagents, 246 (1%) are marked active. 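Plates not normalised; calls are printed but the firefly/Renilla ratio behind them is not deposited; fold cut for lowering reported inconsistently.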 The raw values are shown without normalisation. No sequences are given here. The record does not give: the amount of reagent.

| gene knocked down | dsRNA | firefly reporter light, replicate 1 | firefly reporter light, replicate 2 | Renilla control light, replicate 1 | Renilla control light, replicate 2 | call |
| --- | --- | --- | --- | --- | --- | --- |
| velo (GeneID 38748) | DRSC08841 | 20282 | 14642 | 1.18e5 | 1.19e5 | inactive |
| velo (GeneID 38748) | DRSC09698 | 1.05e6 | 1.25e6 | 1.40e6 | 1.96e6 | inactive |
| velo (GeneID 38748) | DRSC27497 | 3.04e5 | 3.03e5 | 2.72e5 | 4.72e5 | inactive |
| CG34276 (GeneID 41934) | DRSC15811 | 2.66e5 | 3.58e5 | 3.38e6 | 4.12e6 | inactive |
| Spx (GeneID 31558) | DRSC18720 | 1.41e5 | 1.48e5 | 1.69e6 | 2.16e6 | inactive |
| Spx (GeneID 31558) | DRSC23542 | 1.79e5 | 2.79e5 | 7.00e5 | 5.80e5 | inactive |
| CG12481 (GeneID 32364) | DRSC19461 | 3.90e5 | 4.40e5 | 2.31e6 | 2.47e6 | inactive |
| CG15506 (GeneID 43498) | DRSC15047 | 1.56e5 | 1.49e5 | 1.60e6 | 2.44e6 | inactive |
| Tcs5 (GeneID 38600) | DRSC09774 | 1.29e5 | 96986 | 1.45e6 | 1.66e6 | inactive |
| azot (GeneID 35751) | DRSC06051 | 2.42e5 | 2.53e5 | 1.30e6 | 1.48e6 | inactive |
| azot (GeneID 35751) | DRSC25443 | 1.33e6 | 1.62e6 | 8.65e5 | 9.86e5 | inactive |
| Atg6 (GeneID 42850) | DRSC15798 | 1.03e5 | 96318 | 4.79e5 | 6.37e5 | inactive |
| Atg6 (GeneID 42850) | DRSC24442 | 6.09e5 | 6.34e5 | 8.26e5 | 1.01e6 | inactive |
| CG12398 (GeneID 32422) | DRSC19454 | 2.77e5 | 2.92e5 | 2.30e6 | 2.41e6 | inactive |
| Ptip (GeneID 39552) | DRSC10660 | 2.28e5 | 2.47e5 | 2.08e6 | 1.66e6 | inactive |
| Ptip (GeneID 39552) | DRSC11048 | 62296 | 29438 | 5.97e5 | 5.22e5 | inactive |
| beat-IIa (GeneID 42086) | DRSC14813 | 3.11e5 | 3.56e5 | 3.45e6 | 3.27e6 | inactive |
| beat-IIa (GeneID 42086) | DRSC14814 | 97704 | 98997 | 1.21e6 | 1.22e6 | inactive |
| cocoon (GeneID 39665) | DRSC10916 | 3.52e5 | 3.03e5 | 3.15e6 | 2.83e6 | inactive |
| cocoon (GeneID 39665) | DRSC28623 | 5.04e5 | 4.45e5 | 1.43e6 | 1.81e6 | inactive |
| Ccp84Ac (GeneID 40823) | DRSC12588 | 46369 | 64238 | 1.12e6 | 1.00e6 | inactive |
| Ccp84Ac (GeneID 40823) | DRSC25631 | 7.65e5 | 7.87e5 | 1.09e6 | 1.09e6 | inactive |
| CG14966 (GeneID 38390) | DRSC08425 | 83529 | 81174 | 9.28e5 | 1.22e6 | inactive |
| CG13725 (GeneID 39928) | DRSC10054 | 4.05e5 | 4.33e5 | 1.81e6 | 2.59e6 | inactive |
